Results: patent publication US20160220677A1, “STABLE AQUEOUS COMPOSITIONS OF PROSTGLANDIN AGONIST PRODRUGS AND METHODS FOR USE THEREOF” (Allergan, Inc., priority 2009, published 2016)
At least one compound was matched to its structure with a doubt left.

Experiment: Aqueous stability of formulations, % recovery by HPLC
Assay type: physicochemical
Procedure: The aqueous stability of invention compositions was evaluated using Compounds 2 and 3.
The formulations were analyzed by HPLC with the following measurement parameters:
Column: BioWidePore C18 (SUPELCO), 4.6 mm×25 cm, 5 μm Mobile Phase A: 0.1% (V/V) trifluoroacetic acid (TFA) in di-water, 0.8 micron filtered Mobile Phase B: 100% acetonitrile, 0.8 micron filtered Column temp: Ambient Injection volume: 30 μL
Flow: 1.0 mL/min Run time: 25 minutes Sample diluent: 50% acetonitrile in di-water
Using the above HPLC parameters, the following stability data was generated: […]

[1] = Formulation 1 (polysorbate 80, pH 6.0), 30° C., 15 days
[2] = Formulation 1 (polysorbate 80, pH 6.0), 30° C., 30 days
[3] = Formulation 1 (polysorbate 80, pH 6.0), 30° C., 45 days
[4] = Formulation 1 (polysorbate 80, pH 6.0), 45° C., 15 days
[5] = Formulation 1 (polysorbate 80, pH 6.0), 45° C., 30 days
[6] = Formulation 1 (polysorbate 80, pH 6.0), 45° C., 45 days
[7] = Formulation 1 (polysorbate 80, pH 6.0), 60° C., 15 days
[8] = Formulation 1 (polysorbate 80, pH 6.0), 60° C., 30 days
[9] = Formulation 1 (polysorbate 80, pH 6.0), 60° C., 45 days
[10] = Formulation 2 (polysorbate 80, pH 7.3), 30° C., 15 days
[11] = Formulation 2 (polysorbate 80, pH 7.3), 30° C., 30 days
[12] = Formulation 2 (polysorbate 80, pH 7.3), 30° C., 45 days
[13] = Formulation 2 (polysorbate 80, pH 7.3), 45° C., 15 days
[14] = Formulation 2 (polysorbate 80, pH 7.3), 45° C., 30 days
[15] = Formulation 2 (polysorbate 80, pH 7.3), 45° C., 45 days
[16] = Formulation 2 (polysorbate 80, pH 7.3), 60° C., 15 days
[17] = Formulation 2 (polysorbate 80, pH 7.3), 60° C., 30 days
[18] = Formulation 2 (polysorbate 80, pH 7.3), 60° C., 45 days
[19] = Formulation 3 (Pluronic F127, pH 6.0), 30° C., 15 days
[20] = Formulation 3 (Pluronic F127, pH 6.0), 30° C., 30 days
[21] = Formulation 3 (Pluronic F127, pH 6.0), 30° C., 45 days
[22] = Formulation 3 (Pluronic F127, pH 6.0), 45° C., 15 days
[23] = Formulation 3 (Pluronic F127, pH 6.0), 45° C., 30 days
[24] = Formulation 3 (Pluronic F127, pH 6.0), 45° C., 45 days
[25] = Formulation 3 (Pluronic F127, pH 6.0), 60° C., 15 days
[26] = Formulation 3 (Pluronic F127, pH 6.0), 60° C., 30 days
[27] = Formulation 3 (Pluronic F127, pH 6.0), 60° C., 45 days
[28] = Formulation 4 (Pluronic F127, pH 7.3), 30° C., 15 days
[29] = Formulation 4 (Pluronic F127, pH 7.3), 30° C., 30 days
[30] = Formulation 4 (Pluronic F127, pH 7.3), 30° C., 45 days
[31] = Formulation 4 (Pluronic F127, pH 7.3), 45° C., 15 days
[32] = Formulation 4 (Pluronic F127, pH 7.3), 45° C., 30 days
[33] = Formulation 4 (Pluronic F127, pH 7.3), 45° C., 45 days
[34] = Formulation 4 (Pluronic F127, pH 7.3), 60° C., 15 days
[35] = Formulation 4 (Pluronic F127, pH 7.3), 60° C., 30 days
[36] = Formulation 4 (Pluronic F127, pH 7.3), 60° C., 45 days

Compound	% Recovery [1] [%]	% Recovery [2] [%]	% Recovery [3] [%]	% Recovery [4] [%]	% Recovery [5] [%]	% Recovery [6] [%]	% Recovery [7] [%]	% Recovery [8] [%]	% Recovery [9] [%]	% Recovery [10] [%]	% Recovery [11] [%]	% Recovery [12] [%]	% Recovery [13] [%]	% Recovery [14] [%]	% Recovery [15] [%]	% Recovery [16] [%]	% Recovery [17] [%]	% Recovery [18] [%]	% Recovery [19] [%]	% Recovery [20] [%]	also measured
CCCCCC(O)c1ccc(N2C(=O)CC[C@@H]2CCCc2ccc(C(=O)OC(C)C)s2)cc1 (stereo partly drawn) [Compound 1]	99.8	99.4	100.3	98.3	98.5	98.1	89.1	88.3	78.7	100.7	99.9	101.7	95.7	96.0	97.9	89.5	85.8	81.1	101.5	99.7	% Recovery [21]: 96.7%; % Recovery [22]: 101.5%; % Recovery [23]: 103.1%; % Recovery [24]: 98.2%; % Recovery [25]: 92.3%; % Recovery [26]: 55.1%; % Recovery [27]: 51.3%; % Recovery [28]: 96.9%; % Recovery [29]: 93.2%; % Recovery [30]: 93.7%; % Recovery [31]: 100.4%; % Recovery [32]: 88.6%; % Recovery [33]: 89.9%; % Recovery [34]: 85.1%; % Recovery [35]: 36.0%; % Recovery [36]: 33.4%
CCCCCC(O)c1ccc(N2C(=O)CC[C@@H]2CCCc2ccc(C(=O)OCCO)s2)cc1 (stereo partly drawn) [Compound 2]	97.7	99.6	100.6	100.2	99.1	98.5	93.8	86.8	80.8	101.8	101.6	100.8	100.4	99.4	96.7	94.4	86.8	81.3	103.2	106.6	% Recovery [21]: 105.8%; % Recovery [22]: 103%; % Recovery [23]: 103.3%; % Recovery [24]: 101.1%; % Recovery [25]: 100.2%; % Recovery [26]: 82.9%; % Recovery [27]: 79.3%; % Recovery [28]: 101.7%; % Recovery [29]: 102.9%; % Recovery [30]: 102.4%; % Recovery [31]: 100.7%; % Recovery [32]: 100.2%; % Recovery [33]: 99.6%; % Recovery [34]: 94.6%; % Recovery [35]: 73.6%; % Recovery [36]: 62.3%
